Several values for one entry are separate records, joined by “and”; a condition that tells them apart may be missing. Equal entries are not always repeated. In all, about 580,000 compounds went through this assay and about 6,100 (1.1%) were called active. The inconclusive results got no clear call from the source; some entries with a clear call stand among them for comparison. The call rests on the fitted dose curve; in most records, active means well fitted inhibition curve with a large enough effect; inconclusive means small, poorly fitted or top-dose-only effect, or another doubt; inactive means no such curve, though single readings can be large or run the other way. Potencies beside an inconclusive call are fits to weak or partial responses and may not hold up.
Biological target: Polyunsaturated fatty acid lipoxygenase ALOX12 (Homo sapiens) (UniProt P18054)
Experiment: Primary qHTS assay for inhibitors of human arachidonate 12S-lipoxygenase (ALOX12): Round 2
Settings: purified 12hLO, xylenol orange hydroperoxide absorbance; activity change, negative = inhibition: at 108 µM (top of the series) unless noted
Method in brief: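 Hydroperoxide product was detected by ferrous iron/xylenol orange as the 573 to 405 nm absorbance ratio. Arachidonic acid at 40 uM (final) was turned over for 30 min at room temperature by 150 nM human 12hLO, pH 7.0 Hepes buffer, after 15 min compound preincubation.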
On the % scale 0 is the no-effect control and ±100 the full control effect; potency means the concentration at half of the fitted maximal effect.

Sequences of proteins named here, by UniProt entry; tags and fusion partners are left off. A change or cut given only in a name is not applied to a line headed by its entry.
UniProt P18054: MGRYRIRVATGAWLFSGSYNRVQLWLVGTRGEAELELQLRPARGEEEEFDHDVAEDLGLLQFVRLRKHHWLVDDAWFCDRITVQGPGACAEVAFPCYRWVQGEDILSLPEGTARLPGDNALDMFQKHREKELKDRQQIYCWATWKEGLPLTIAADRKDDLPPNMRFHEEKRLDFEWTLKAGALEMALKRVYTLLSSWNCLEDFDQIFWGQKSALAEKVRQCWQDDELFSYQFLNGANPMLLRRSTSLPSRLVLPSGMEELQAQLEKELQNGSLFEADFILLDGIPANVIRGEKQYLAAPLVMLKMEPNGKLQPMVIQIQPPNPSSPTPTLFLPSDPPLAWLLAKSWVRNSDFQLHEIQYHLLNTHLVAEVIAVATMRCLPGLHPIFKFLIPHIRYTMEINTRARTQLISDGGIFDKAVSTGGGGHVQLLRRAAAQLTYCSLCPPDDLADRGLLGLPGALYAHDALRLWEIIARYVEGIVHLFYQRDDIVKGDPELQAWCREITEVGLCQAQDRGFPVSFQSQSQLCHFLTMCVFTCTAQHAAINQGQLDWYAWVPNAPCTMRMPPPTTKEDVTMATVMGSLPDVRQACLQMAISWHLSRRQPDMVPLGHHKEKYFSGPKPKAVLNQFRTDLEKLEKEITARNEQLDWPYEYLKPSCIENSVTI

`c1ccc([C@@H]2CNC[C@H]2COCC2CC2)nc1` was tested. Which Potency did it give?
The Potency was “inactive”.

Which Potency does the source give for `O=C(CSc1nccc(=O)[nH]1)N1N=C2/C(=C/c3ccco3)CCCC2C1c1ccco1` (centres undefined) here?
Its Potency is inconclusive: 44.7 µM [inhibitor, partial curve].

With `CCOC(=O)C1CCN(C(c2ccc(OCC)cc2)c2c(O)cc(C)n(CCOC)c2=O)CC1` (centres undefined) as the compound, how does the Potency read?
Its Potency is “inactive”.

`CCOC(=O)c1c(NS(=O)(=O)c2ccc(Br)cc2)sc2c1CCC2` was tested. Which Potency did it give?
The Potency was “inactive”.

With `O=C1NCCCCCN(C(=O)NCc2ccccc2)[C@H]2CCCC[C@@H]12` as the compound, how does the Potency read?
The Potency was “inactive”.

`CC1S/C(=N/N=C/c2ccco2)N(Cc2ccc(F)cc2)C1=O` (centres undefined) was tested. Which Potency did it give?
Its Potency is inconclusive: 50.1 µM [inhibitor, partial curve, poor fit].

How did the activity change, negative = inhibition turn out when `Cc1ccc(NC(=O)COC(=O)CCC2CCCC2)cc1S(=O)(=O)N1CCOCC1` was run?
Its activity change, negative = inhibition is inconclusive: -37.4% [inhibitor].

For `CCCCc1c(-c2ccc(F)cc2F)ncn1CCc1ccccc1OC`, which Potency is on record?
Its Potency is inconclusive: 39.8 µM [inhibitor, partial curve, poor fit].

`CN(C)c1ccnc2sc(C(N)=O)c(N)c12` was tested. Which Potency did it give?
The Potency was inconclusive: 20 µM [inhibitor, full curve, poor fit].

`O=C(COCc1cc(-c2ccc(F)cc2)on1)Nc1cc(Cl)ccc1O` was tested. Which Potency did it give?
The Potency was “inactive”.

With `O=C(c1ccc(Cl)cc1)N1CCC2(Cc3ccccc3NC2=O)C1` (centres undefined) as the compound, how does the Potency read?
Its Potency is inconclusive: 3.55 µM [inhibitor, single point] and inconclusive: 28.2 µM [inhibitor, partial curve, poor fit].

For `COc1ccc2cc(S(=O)(=O)N3CCCC3)c(=O)oc2c1`, which Potency is on record?
Its Potency is “inactive”.

`Cc1ccc(NC(=S)NC(=O)c2ccc(Br)o2)c(C)c1` was tested. Which Potency did it give?
The Potency was “inactive”.

For `CC(C(=O)NC1=NCCS1)N1C(=O)c2ccccc2C1=O` (centres undefined), which Potency is on record?
Its Potency is inconclusive: 39.8 µM [inhibitor, partial curve, poor fit].

`COc1ccc(C)cc1C(=O)CCC(=O)NCCc1ccc(S(N)(=O)=O)cc1` was tested. Which Potency did it give?
The Potency was inconclusive: 20 µM [inhibitor, partial curve, poor fit].

Which Potency does the source give for `Cc1ccc(-c2cnc(SCC(=O)Nc3ccc(Cl)cc3)o2)cc1C` here?
Its Potency is “inactive”.

How did the Potency turn out when `O=C(O)C1Oc2ccccc2O1` was run?
Its Potency is inconclusive: 7.08 µM [inhibitor, full curve, poor fit].

`Cc1cccc(NC(=O)c2c(O)c3ccccc3n(C)c2=O)c1` was tested. Which Potency did it give?
Its Potency is inconclusive: 28.2 µM [inhibitor, single point].

With `N#Cc1nc(-c2ccccc2Cl)oc1NC1CC1` as the compound, how does the Potency read?
Its Potency is inconclusive: 44.7 µM [inhibitor, partial curve, poor fit].

Which Potency does the source give for `O=C(c1cccc(S(=O)(=O)NC2CC2)c1)N1CCN(c2ccccc2F)CC1` here?
The Potency was “inactive”.

With `COc1cccc2cc(-c3nc(Nc4cccc(C)c4C)sc3C)c(=O)oc12` as the compound, how does the Potency read?
The Potency was inconclusive: 56.2 µM [inhibitor, partial curve, poor fit].

`COc1ccc(Cc2c(-c3cccc(Cl)c3)nc3ccc(C)cn23)c(C)c1` was tested. Which Potency did it give?
Its Potency is active: 10 µM.

`C[C@H](CO)N1C[C@H](C)[C@@H](CN(C)Cc2ccncc2)Oc2c(NS(=O)(=O)c3cccs3)cccc2C1=O` was tested. Which Potency did it give?
The Potency was inconclusive: 39.8 µM [inhibitor, partial curve].

For `S=c1[nH]c2cc(Br)cnc2[nH]1`, which Potency is on record?
Its Potency is active: 39.8 µM.

With `Cc1ccc(C)c(Sc2ccc(NC(=O)c3ccc(C)c(C)c3)cc2)c1` as the compound, how does the Potency read?
The Potency was “inactive”.

How did the Potency turn out when `CCCCC(CC)C(=O)Nc1ccc(Cl)cn1` (centres undefined) was run?
Its Potency is inconclusive: 44.7 µM [inhibitor, partial curve, poor fit].

How did the Potency turn out when `O=C(C1CC1)N1CCC(c2nc(-c3ccc4nc[nH]c4c3)no2)CC1` was run?
Its Potency is “inactive”.

Which Potency does the source give for `CCC(CC)NC(=O)C1CCCN(Cc2ccncc2)CCC(=O)NCC1` (centres undefined) here?
The Potency was “inactive”.

`CCc1ccc(C2C(C#N)=C(N)N(N3CCOCC3)C3=C2C(=O)CC(C)(C)C3)cc1` (centres undefined) was tested. Which Potency did it give?
The Potency was inconclusive: 31.6 µM [inhibitor, partial curve, poor fit].

Which Potency does the source give for `Cc1ccn(CC(=O)N2C[C@@H](COc3ccccc3)[C@H](C(N)=O)C2)n1` here?
The Potency was “inactive”.

`Cc1cc(N2CCCCC2)nc(NCc2ccccc2)n1` was tested. Which Potency did it give?
The Potency was “inactive and inconclusive: 89.1 µM [inhibitor, single point]”.

For `CN(C(=S)NC(=O)C1CC1)c1ccc(O)cc1`, which Potency is on record?
The Potency was inconclusive: 35.5 µM [inhibitor, partial curve, poor fit].

How did the Potency turn out when `CC(C)CC(=O)c1c[nH]c(C(=O)NCc2cccnc2)c1` was run?
The Potency was inconclusive: 100 µM [inhibitor, single point].

Which Potency does the source give for `COc1cccc(C2C=C(c3ccccc3)Nc3c(C(=O)Nc4ccccc4)cnn32)c1OC` (centres undefined) here?
Its Potency is “inactive”.

Which Potency does the source give for `Cn1cc(C(=O)C(=O)NC2CC2)c2ccccc21` here?
The Potency was “inactive”.

For `COc1ccccc1OCc1nnc(SCC(=O)NCc2ccco2)n1Cc1ccco1`, which Potency is on record?
Its Potency is inconclusive: 100 µM [inhibitor, single point].

`O=C(CSc1ncn(-c2ccccc2)n1)N1CCc2ccccc21` was tested. Which Potency did it give?
The Potency was inconclusive: 17.8 µM [inhibitor, partial curve, poor fit].

`Cc1oc(-c2ccccc2)nc1C(=O)OC(C)C(=O)NCc1ccccc1` (centres undefined) was tested. Which Potency did it give?
The Potency was inconclusive: 70.8 µM [inhibitor, single point].

For `CC(Sc1n[nH]c(=O)n1C1CC1)C(=O)c1ccc(F)cc1` (centres undefined), which Potency is on record?
Its Potency is “inactive”.

Which Potency does the source give for `O=C(O)C(Br)Cc1ccc(Cl)cc1` (centres undefined) here?
Its Potency is inconclusive: 14.1 µM [inhibitor, partial curve, poor fit].

Which Potency does the source give for `COc1cccc(/C(O)=C2/C(=O)C(=O)N(CCN3CCOCC3)C2c2cccs2)c1` (centres undefined) here?
Its Potency is inconclusive: 22.4 µM [inhibitor, partial curve, poor fit].

With `CC(C)c1ccc(C2C3=C(CC(C)(C)CC3=O)OC3=C2C(=O)CC(C)(C)C3)cc1` as the compound, how does the Potency read?
The Potency was “inactive”.

With `Cc1cccc(OC(C)CCN2CCC(C(O)(c3ccccc3)c3ccccc3)CC2)c1` (centres undefined) as the compound, how does the Potency read?
Its Potency is inconclusive: 39.8 µM [inhibitor, partial curve, poor fit].

Which Potency does the source give for `CSc1ccc(C(c2c(C)[nH][nH]c2=O)c2c(C)[nH][nH]c2=O)cc1` here?
The Potency was inconclusive: 3.55 µM [inhibitor, full curve, poor fit].

With `Cn1c(=O)[nH]c(=O)c2c1nc(SCCN1CCCCC1)n2CCc1ccccc1` as the compound, how does the Potency read?
Its Potency is “inactive”.

How did the Potency turn out when `Cc1ccc2cc(/C=N/NC(=O)c3ccc(F)cc3)c(Cl)nc2c1` was run?
Its Potency is “inactive”.

With `N#C/C(=C/c1ccccc1)C(=O)OCC(=O)N1CCC(Cc2ccccc2)CC1` as the compound, how does the Potency read?
Its Potency is inconclusive: 44.7 µM [inhibitor, partial curve, poor fit].

With `Cc1ccc(C)c(N2CCN(S(=O)(=O)c3ccc(-c4coc(C)n4)cc3)CC2)c1` as the compound, how does the Potency read?
Its Potency is inconclusive: 56.2 µM [inhibitor, partial curve, poor fit].

With `CCOc1ccc(CN2CCC3(Cc4ccccc4CNC3=O)C2)cc1` (centres undefined) as the compound, how does the activity change, negative = inhibition read?
Its activity change, negative = inhibition is inactive: -0.718% [at 6.33 µM].

How did the Potency turn out when `COc1ccc(/C(C)=N/NC(=O)c2ccccc2OCc2ccccc2)c(OC)c1` was run?
Its Potency is “inactive”.

How did the Potency turn out when `COc1cccc(C(C)=C2SC(=S)NC2=O)c1` was run?
Its Potency is inconclusive: 44.7 µM [inhibitor, partial curve, poor fit].

For `COc1cc(C(O)c2nc(-c3ccc(C)c(C)c3)cs2)ccc1F` (centres undefined), which Potency is on record?
Its Potency is inconclusive: 100 µM [inhibitor, single point].

With `Cc1ccc(S(=O)(=O)N(CC(=O)NCCSCc2ccco2)c2cc(C)ccc2C)cc1` as the compound, how does the Potency read?
The Potency was active: 39.8 µM.

With `O=C(N/N=C/c1cc(Br)cs1)c1c[nH]c2ccccc12` as the compound, how does the Potency read?
Its Potency is “inactive”.

For `CCOC(=O)C(CC)n1nc(C)c2c(C)n(-c3ccc(C)cc3)nc2c1=O` (centres undefined), which Potency is on record?
Its Potency is “inactive”.

With `Fc1ccc(CNC(=S)Nc2ccc(Cl)cc2)cc1` as the compound, how does the Potency read?
The Potency was inconclusive: 50.1 µM [inhibitor, partial curve, poor fit].

With `CCOC(=O)CNc1nc(Cl)nc(Nc2ccccc2)n1` as the compound, how does the Potency read?
Its Potency is inconclusive: 22.4 µM [inhibitor, partial curve, poor fit].

Which Potency does the source give for `COC(=O)c1ccc(CNC(=O)Cn2cc(C)c(=O)[nH]c2=O)cc1` here?
Its Potency is “inactive”.

For `CCCCN(CCCNC(=O)c1cc(Nc2ccc(OC)cc2)nc2ccccc12)Cc1ccccc1`, which Potency is on record?
Its Potency is “inactive”.

Which Potency does the source give for `N#C/C(=C/c1ccccc1)S(=O)(=O)c1ccc(F)cc1` here?
Its Potency is inconclusive: 56.2 µM [inhibitor, partial curve, poor fit].

For `CCC(c1nnnn1CCc1ccccc1)N(Cc1ccco1)Cc1cc2cccc(C)c2[nH]c1=O` (centres undefined), which Potency is on record?
Its Potency is inconclusive: 22.4 µM [inhibitor, partial curve, poor fit].

For `CC(Sc1nc(-c2ccccc2)cs1)C(=O)NC1(C#N)CCCCC1` (centres undefined), which activity change, negative = inhibition is on record?
Its activity change, negative = inhibition is inconclusive: -43.9% [inhibitor].

With `S=c1[nH]nc(C2CCCCC2)n1/N=C/c1cccs1` as the compound, how does the Potency read?
Its Potency is “inactive”.

With `CCn1c(-c2cccc(S(=O)(=O)N3CCCC3)c2)n[nH]c1=S` as the compound, how does the Potency read?
Its Potency is inconclusive: 56.2 µM [inhibitor, partial curve, poor fit].

With `C=CCNC(=S)Nc1ccc(SC(F)F)cc1` as the compound, how does the Potency read?
Its Potency is inconclusive: 79.4 µM [inhibitor, single point].

How did the Potency turn out when `CCOC(=O)c1ccc(N2C(=O)c3n[nH]c(-c4cccs4)c3C2c2ccc(CC)cc2)cc1` (centres undefined) was run?
The Potency was inconclusive: 79.4 µM [inhibitor, partial curve, poor fit].

How did the Potency turn out when `O=S(=O)(Nc1ccc(F)c(Cl)c1)c1ccc(Br)s1` was run?
Its Potency is inconclusive: 141 µM [inhibitor, single point].
